Patent US9686990B2, “Spiroindolinepiperidine derivatives” (priority 2002, dated 2017)
Some results were stated once for a whole list of compounds, not compound by compound.

Assays:
Assay type in all cases: in vivo
[1] = system: Tetranychus urticae (Two-Spotted Spider Mite); assay: Tetranychus urticae bean leaf disc spray test; conditions: 200 ppm sprayed on bean leaf discs, mite populations of mixed ages, 8 days; egg, larval and adult mortality
[2] = system: Aedes aegypti (Yellow Fever Mosquito); conditions: 2 ppm, L2 larvae with nutrition mixture, 2 days; mortality and growth inhibition
[3] = system: Spodoptera littoralis (Egyptian Cotton Leafworm); assay: Spodoptera littoralis cotton leaf disc spray test; conditions: 200 ppm sprayed on cotton leaf discs, L1 larvae, 3 days after treatment; mortality, repellent effect, feeding behaviour, growth regulation
Procedure: Test against were performed as follows:
Spodoptera littoralis (Egyptian Cotton Leafworm)

[4] = system: Heliothis virescens (Tobacco Budworm); assay: Heliothis virescens egg/larva test on artificial diet; conditions: 200 ppm by pipetting, eggs 0-24 h old on artificial diet, 4 days incubation; egg mortality, larval mortality, growth regulation

| Compound | control of Tetranychus urticae [1] | control of Aedes aegypti [2] | control of Spodoptera littoralis [3] | control of Heliothis virescens [4] |
| --- | --- | --- | --- | --- |
| Cc1ccc2c(c1)C1(CCN(C/C=C/c3ccc(Cl)cc3)CC1)CN2C(=O)c1ccnc(Cl)c1 [Compound I-202] | at least 80% | at least 80% | at least 80% | at least 80% |
| O=C(C1CCCO1)N1CC2(CCN(C/C=C/c3ccc(Cl)cc3)CC2)c2cc(Cl)ccc21 (stereo not drawn) [XIII-22] | at least 80% | – | – | at least 80% |
| Cc1ccc2c(c1)C1(CCN(C/C=C/c3ccc(Cl)cc3)CC1)CN2C(=O)c1ccc(C#N)cc1 [XIX-202, 1-(4-cyanobenzoyl)-5-methyl-1′-[trans-3-(4-chlorophenyl)allyl]spiro[indoline-3,4′-piperidine]] | at least 80% | – | – | – |
| CCCCS(=O)(=O)N1CC2(CCN(C/C=C/c3ccc(Cl)cc3)CC2)c2cc(OC)ccc21 [XXIX-207] | at least 80% | – | – | – |
| O=C(c1ccnc(Cl)c1)N1CC2(CCN(C/C=C/c3ccc(Cl)cc3)CC2)c2c(C(F)(F)F)ccc(Cl)c21 [XXX-50] | – | at least 80% | at least 80% | at least 80% |
| O=C(c1ccnc(Cl)c1)N1CC2(CCN(C/C=C/c3ccc(C(F)(F)F)cc3)CC2)c2cc(Cl)ccc21 [XXX-53] | – | at least 80% | at least 80% | at least 80% |
| O=C(c1ccnc(Cl)c1)N1CC2(CCN(C/C=C/c3cccc(Br)c3)CC2)c2cc(Cl)ccc21 [XXX-57] | at least 80% | at least 80% | at least 80% | – |
| Cc1ccccc1/C=C/CN1CCC2(CC1)CN(C(=O)c1ccnc(Cl)c1)c1ccc(Cl)cc12 [XXX-59] | – | at least 80% | at least 80% | at least 80% |
| Cc1ccc(/C=C/CN2CCC3(CC2)CN(C(=O)c2ccnc(Cl)c2)c2ccc(Cl)cc23)cc1 [XXX-60] | – | at least 80% | at least 80% | at least 80% |
| O=C(c1ccnc(Cl)c1)N1CC2(CCN(C/C=C/c3ccc(F)c(Cl)c3)CC2)c2cc(Cl)ccc21 [XXX-61] | – | at least 80% | at least 80% | at least 80% |
| O=C(c1ccnc(Cl)c1)N1CC2(CCN(C/C=C/c3cc(Cl)cc(Cl)c3)CC2)c2cc(Cl)ccc21 [XXX-62] | – | at least 80% | at least 80% | at least 80% |
| O=C(c1ccnc(Cl)c1)N1CC2(CCN(C/C=C/c3cccc(Cl)c3)CC2)c2cc(Cl)ccc21 [XXX-67] | – | at least 80% | at least 80% | at least 80% |
| C/C(=C\CN1CCC2(CC1)CN(C(=O)c1ccnc(Cl)c1)c1ccc(Cl)cc12)c1ccc(Cl)cc1 [XXX-82] | – | at least 80% | at least 80% | at least 80% |
| CC(=O)N1CC2(CCN(C/C=C(\C)c3ccc(Cl)cc3)CC2)c2cc(Cl)ccc21 [XXX-83] | – | at least 80% | at least 80% | at least 80% |
| CC(=O)N1CC2(CCN(C/C=C/c3ccc(OC(F)(F)F)cc3)CC2)c2cc(Cl)ccc21 [XXX-87] | – | at least 80% | at least 80% | at least 80% |
| O=C(c1ccnc(Cl)c1)N1CC2(CCN(C/C=C(\F)c3ccccc3)CC2)c2cc(Cl)ccc21 [XXX-88] | – | at least 80% | at least 80% | at least 80% |
| O=C(N1CC2(CCN(C/C=C/c3ccc(Cl)cc3)CC2)c2cc(F)ccc21)n1ccnc1 [XXX-93] | – | at least 80% | at least 80% | at least 80% |
| O=C(NCc1cccnc1)N1CC2(CCN(C/C=C/c3ccc(Cl)cc3)CC2)c2cc(F)ccc21 [XXX-106] | – | at least 80% | at least 80% | at least 80% |
| O=C(NCc1ccncc1)N1CC2(CCN(C/C=C/c3ccc(Cl)cc3)CC2)c2cc(F)ccc21 [XXX-109] | – | at least 80% | at least 80% | at least 80% |
| CCNC(=O)N1CC2(CCN(C/C=C/c3ccc(Cl)cc3)CC2)c2cc(F)ccc21 [XXX-110] | – | at least 80% | at least 80% | at least 80% |
| CNC(=O)N1CC2(CCN(C/C=C/c3ccc(Cl)cc3)CC2)c2cc(F)ccc21 [XXX-111] | – | at least 80% | at least 80% | at least 80% |
| O=C(c1ccnc(Cl)c1)N1CC2(CCN(C/C=C/c3ccc(Cl)cc3)CC2)c2cc3c(cc21)OC(F)(F)O3 [XXX-117] | – | at least 80% | at least 80% | at least 80% |
| O=C(c1ccnc(Cl)c1)N1CC2(CCN(C/C=C/c3ccc(Cl)cc3)CC2)c2cc3c(cc21)OCO3 [XXX-118] | – | at least 80% | at least 80% | at least 80% |
| O=C(c1ccnc(Cl)c1)N1CC2(CCN(C/C=C/c3ccc(C(F)(F)F)cn3)CC2)c2cc(Cl)ccc21 [XXXI-1] | – | at least 80% | at least 80% | at least 80% |
| O=C(c1ccnc(Cl)c1)N1CC2(CCN(C/C=C/c3ccc(Cl)s3)CC2)c2cc(F)ccc21 [XXXI-2] | at least 80% | at least 80% | at least 80% | at least 80% |
| O=C(c1ccnc(Cl)c1)N1CC2(CCN(C/C=C/c3ccc4ccccc4c3)CC2)c2cc(Cl)ccc21 [XXXI-4] | – | at least 80% | at least 80% | at least 80% |
| O=C(c1ccnc(Cl)c1)N1CC2(CCN(C/C=C/C=Cc3ccc(Cl)cc3)CC2)c2cc(Cl)ccc21 [XXXI-7] | – | at least 80% | at least 80% | at least 80% |
| O=C(c1ccnc(Cl)c1)N1CC2(CCN(Cc3ccc4cc(F)ccc4c3)CC2)c2cc(F)ccc21 [XXXII-4] | – | at least 80% | at least 80% | at least 80% |
